## Library screen at single concentrations

Chains of the proteins cited; added tags and fusions are not shown.
UniProt P9WPC5, whole entry: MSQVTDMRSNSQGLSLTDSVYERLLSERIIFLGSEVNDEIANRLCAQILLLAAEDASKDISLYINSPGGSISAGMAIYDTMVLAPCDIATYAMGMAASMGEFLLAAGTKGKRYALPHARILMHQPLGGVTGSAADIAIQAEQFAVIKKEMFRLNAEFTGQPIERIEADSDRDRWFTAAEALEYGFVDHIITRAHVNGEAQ
UniProt P9WPC3, whole entry partner: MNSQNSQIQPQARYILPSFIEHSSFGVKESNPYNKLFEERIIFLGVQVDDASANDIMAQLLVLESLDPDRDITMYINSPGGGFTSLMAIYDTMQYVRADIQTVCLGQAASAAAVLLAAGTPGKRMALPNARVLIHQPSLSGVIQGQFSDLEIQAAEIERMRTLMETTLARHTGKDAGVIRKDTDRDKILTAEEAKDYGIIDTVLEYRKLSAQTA

Measurements from “University of Dundee, Small-Polar-MMV Screening Library” (2021), ChEMBL document CHEMBL3988442.

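Protease assay of ClpP1P2, read by the AMC dye that it sets free. Target: ClpP1P2, Mycobacterium tuberculosis (UniProt P9WPC5 and UniProt P9WPC3). Compounds at 50 µM. Higher reads as stronger inhibition, judged from the few compounds that gave an IC50. Most other retested compounds had strongly negative values. Size under these conditions: about 69,000 compounds, about 10 of them at 50% or above in at least one test.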

The filed quantity is “Percent Effect” (%).
The controls that fix the scale are not given in the record; negative values are as filed.
This is an unselected part of the compounds tested.

compound | percent effect
CCC(C)NC(=O)CN1CCC2(CC1)OCCO2 (centres unmarked) | -3.265%
Cc1ccc(OCCCNC(=O)C2(C)CC(=O)N3C=CC=CC3=N2)cc1 (centres unmarked) | -28.42%
O=C(NCC1CCC1)c1ccc(-n2ccnc2)nn1 | -2.124%
CN(C)CCN1CC(C(=O)N(C)Cc2cc3cc(F)ccc3[nH]2)CC1=O (centres unmarked) | 1.138%
Cc1ccc(CN2CCc3c(CN(C)C)n[nH]c3C2)s1 | 3.079%
Cc1nn(C)cc1CN1CCCCCC1c1ccccc1Cl (centres unmarked) | 4.337%
Cc1cccc(SC2CCN(Cc3nc(CC4CC4)no3)CC2)c1 | -5.101%
CS(=O)(=O)NC1CCN(c2cccc(F)c2C#N)CC1 | 4.248%
Cc1cc(=O)n2c3c(cc(S(=O)(=O)NC4CC4)cc13)CCC2 | 20.61%
Cc1ccc2cc(CN(C)Cc3ncc[nH]3)c(=O)[nH]c2c1 | -41.26%
CCc1nonc1NC(=O)C(C)Oc1ccccc1F (centres unmarked) | -5.884%
O=C(c1cc[nH]n1)N1CCCC1c1ccccn1 (centres unmarked) | -16.32%
O=C(c1ccc2nccnc2c1)N1C[C@@H](CN2CCCC2)[C@@H](CO)C1 | -5.416%
CC(C)(C)CN1CCN2C(=O)N(C3CCCCC3)C[C@H]2C1 | -3.574%
CC(C)c1nc(CN2CCCC2Cn2cncn2)no1 (centres unmarked) | -4.001%
O=C(c1cc[nH]n1)N1CCc2c(nc(N3CCCCC3)[nH]c2=O)C1 | 1.337%
CCCc1noc(-c2ccc(-n3ncc(C(=O)O)c3C)nc2)n1 | 7.416%
Cc1sc2c(C3CCCNC3)nc(Nc3cccc(F)c3)n2c1C (centres unmarked) | -84.13%
Cn1cc(C[C@H]2[C@H](O)CCN2CC2CCOCC2)cn1 | -5.363%
Cc1cc(-c2cc(N)c(=O)n(CC(=O)NCC3CCCCC3)n2)c(C)o1 | 5.624%
CC(C)NC(=O)c1ccn(COc2c(Cl)cccc2Cl)n1 | -12.73%
Cc1cc(C(=O)NC(C)CC(=O)c2cccs2)n(C)n1 (centres unmarked) | -12.18%
Cc1nc2c(c(N3C[C@@H](C)[C@@](C)(O)C3)n1)CCC2 | -11.04%
Cc1ccoc1C(=O)N1C[C@H]2CCC[C@@]2(COCc2ccncc2)C1 | -9.911%
Cc1ccc(C(=O)N2CCC3(CC2)C(=O)NCCN3C)cc1O | -16.75%
Cc1ncncc1C(=O)N1C[C@H]2CC[C@@H]1CN(C(=O)c1ccncc1)C2 | 3.396%
COc1cc(C(=O)N2CCCC(n3ccnc3)C2)cc2c1OCCO2 (centres unmarked) | 2.715%
CCOC(=O)[C@@H]1[C@@H](c2ccccc2)CN2CCN(C(=O)N(C)C)C[C@H]12 | -19.18%
COc1cccc(OCC(=O)N2CCC3(CC2)[C@H](O)C[C@@H]3OC)c1 | 2.903%
COc1cc(C)nc(N2CCN(Cc3nccn3C)CC2)n1 | -6.62%
COc1ccc2c(OCC(=O)NCC(F)(F)F)ccnc2c1 | 7.155%
Cc1ncncc1C(=O)N1CCCC(n2ccnc2C)C1 (centres unmarked) | 15.63%
Cc1ccc(-c2ccc(C(=O)NCCC(=O)N(C)C)c(F)c2)cc1 | -13.86%
CCn1cc(CN2C[C@@H]3CCCN3C[C@H]2CCSC)cn1 | -15.8%
CSc1ccsc1C(=O)N1CCN(CC(C)(C)O)CC1 | 6.837%
CN(C)CC1CN(Cc2coc(-c3cccc(F)c3)n2)CCO1 (centres unmarked) | 11.75%
CCCOc1ccc2ccccc2c1CN1CC[C@@]2(O)CCNC[C@H]2C1 | -3.182%
Cc1cccc(N2Cc3nc(=O)[nH]n3C2=O)c1 | -8.044%
Cc1ccc(C(C(=O)NCCN2CCC(CO)CC2)N(C)C)cc1 (centres unmarked) | 1.013%
COCCC(=O)N1CCC2(CCN(Cc3cccc(F)c3)C2)C1 (centres unmarked) | 7.016%
COc1ccc2c(c1)CC(NC(=O)NCc1cccs1)CO2 (centres unmarked) | -19.43%
CNc1nc2ncc(Cl)cc2cc1C#N | -44.57%
CCn1cc(CNC2CC(=O)N(CCc3cccc(Cl)c3)C2)cn1 (centres unmarked) | -5.552%
CC(C)CN1CCC2(CCN(Cc3ccc(F)cc3)CC2)C1=O | 11.08%
CC(c1nnc(-c2cccs2)o1)N1CCn2c(nnc2C2CC2)C1 (centres unmarked) | 1.557%
CN(C)c1no[n+]([O-])c1-c1ccccc1 | -0.6545%
COc1cccc(NC(=O)NCC(C)(O)CCSC)c1OC (centres unmarked) | -4.479%
COc1cc(CNCc2ccnc(N3CCOCC3)c2)cc(Cl)c1OC | 0.06749%
CC(C)CCN1CCN(Cc2nc(C3CC3)no2)CC1 | -2.328%
CC(=O)NC[C@]1(O)CCN(C(=O)c2ccc(C)c(F)c2)C[C@H]1O | -2.396%
Cc1[nH]c(=O)[nH]c(=O)c1CC(=O)N1CCCN(CC2CC2)C(C(C)C)C1 (centres unmarked) | -1.032%
Cc1ncc(-c2ccnc(SCCN)n2)c(-c2ccco2)n1 | 10.77%
c1ccc(CN2CCC3(CC2)Nc2ccccc2CO3)cc1 | -17.3%
COc1ccc(S(=O)(=O)C(C)C(=O)NCCOc2cccc(C)c2)cc1 (centres unmarked) | -2.152%
Cc1ccc2c(c1)CCC2NC(=O)N1CCC(C(N)=O)CC1 (centres unmarked) | -0.3997%
Cc1cc(C)n(C2CN(CC(O)c3ccc(S(C)(=O)=O)cc3)C2)n1 (centres unmarked) | -17.37%
O=C(Cn1cc(-c2ccccc2)ncc1=O)Nc1nc(C2CC2)n[nH]1 | -8.498%

7 of the entries, repeated:

| compound | percent effect |
|---|---|
| `CC(=O)NC[C@]1(O)CCN(C(=O)c2ccc(C)c(F)c2)C[C@H]1O` | -2.396% |
| `Cc1ccc(C(=O)N2CCC3(CC2)C(=O)NCCN3C)cc1O` | -16.75% |
| `CC(C)NC(=O)c1ccn(COc2c(Cl)cccc2Cl)n1` | -12.73% |
| `O=C(NCC1CCC1)c1ccc(-n2ccnc2)nn1` | -2.124% |
| `CCn1cc(CN2C[C@@H]3CCCN3C[C@H]2CCSC)cn1` | -15.8% |
| `Cc1ccc2cc(CN(C)Cc3ncc[nH]3)c(=O)[nH]c2c1` | -41.26% |
| `Cc1cccc(SC2CCN(Cc3nc(CC4CC4)no3)CC2)c1` | -5.101% |